Data on 2 molecules can be found in publication PMC10062582.

Sequences of proteins named here, by UniProt entry; tags and fusion partners are left off. A change or cut given only in a name is not applied to a line headed by its entry.
UniProt P32905: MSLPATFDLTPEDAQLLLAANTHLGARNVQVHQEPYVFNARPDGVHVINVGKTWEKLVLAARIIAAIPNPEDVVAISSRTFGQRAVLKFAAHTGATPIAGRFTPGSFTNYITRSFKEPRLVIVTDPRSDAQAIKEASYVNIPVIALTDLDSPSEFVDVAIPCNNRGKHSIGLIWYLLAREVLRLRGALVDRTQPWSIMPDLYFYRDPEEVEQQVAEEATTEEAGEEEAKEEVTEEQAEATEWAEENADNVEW
UniProt P0C0V8: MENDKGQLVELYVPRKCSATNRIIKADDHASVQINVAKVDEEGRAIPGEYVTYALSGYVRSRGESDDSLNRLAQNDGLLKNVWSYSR

In assay [1] the target is T1, Enp1 in fusion with the tandem affinity purification tag (Enp1-TAP) (S. cerevisiae) (UniProt P38333).
T1 sequence: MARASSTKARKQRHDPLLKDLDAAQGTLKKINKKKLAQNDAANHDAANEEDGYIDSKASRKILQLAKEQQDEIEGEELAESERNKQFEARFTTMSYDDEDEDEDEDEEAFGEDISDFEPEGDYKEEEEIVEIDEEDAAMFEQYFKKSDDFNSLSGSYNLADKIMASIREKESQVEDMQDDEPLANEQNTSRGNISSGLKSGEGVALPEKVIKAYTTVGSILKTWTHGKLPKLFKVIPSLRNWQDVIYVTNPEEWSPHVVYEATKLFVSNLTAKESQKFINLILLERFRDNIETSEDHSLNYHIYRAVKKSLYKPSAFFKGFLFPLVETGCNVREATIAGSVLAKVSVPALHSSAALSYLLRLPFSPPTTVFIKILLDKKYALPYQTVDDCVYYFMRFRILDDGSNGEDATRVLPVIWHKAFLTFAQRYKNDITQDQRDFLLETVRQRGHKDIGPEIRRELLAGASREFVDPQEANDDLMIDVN
Kind of assay: cryo-EM structure; SSU precursor particles (with 20S pre-rRNA) one-step affinity purified via Enp1-TAP from extract of control strain Y2226 after four hours in glucose medium; state Enp1TAP_A; bait rows: proteins found together in one particle, direct contact not told.

For assay [2], the target named is rpS0/uS2 (S. cerevisiae (endogenous)) (UniProt P32905). The description is as above.

These are yes or no findings as the source states them, for the method shown. Binding can be weak; no strength is given. For some assays here: Tags and fused reporters may be left off the sequences shown.

On to rpS21/eS21 (from UniProt P0C0V8), for which the binding entry in assay [1] is “binds”.

B1: yeast endonuclease Nob1 (enzyme, UniProt Q08444 1-459)
chain: MTENQTAHVRALILDATPLITQSYTHYQNYAQSFYTTPTVFQEIKDAQARKNLEIWQSLGTLKLVHPSENSIAKVSTFAKLTGDYSVLSANDLHILALTYELEIKLNNGDWRLRKKPGDALDASKADVGTDGKQKLTEDNKKEEDSESVPKKKNKRRGGKKQKAKREAREAREAENANLELESKAEEHVEEAGSKEQICNDENIKESSDLNEVFEDADDDGDWITPENLTEAIIKDSGEDTTGSLGVEASEEDRHVALNRPENQVALATGDFAVQNVALQMNLNLMNFMSGLKIKRIRNYMLRCHACFKIFPLPKDGKPKHFCASCGGQGTLLRCAVSVDSRTGNVTPHLKSNFQWNNRGNRYSVASPLSKNSQKRYGKKGHVHSKPQENVILREDQKEYEKVIKQEEWTRRHNEKILNNWIGGGSADNYISPFAITGLKQHNVRIGKGRYVNSSKRRS
On to B1, for which the binding entry in assay [2] is recorded as “binds”.
